Results are given in words; binding and its absence hold for the method and conditions named. In cells and extracts the contact can be indirect. These calls come from enrichment with a bait or labelling near it, and not all partners need be listed.
B1: RASA3 (protein, UniProt Q14644 1-834)
chain: MAVEDEGLRVFQSVKIKIGEAKNLPSYPGPSKMRDCYCTVNLDQEEVFRTKIVEKSLCPFYGEDFYCEIPRSFRHLSFYIFDRDVFRRDSIIGKVAIQKEDLQKYHNRDTWFQLQHVDADSEVQGKVHLELRLSEVITDTGVVCHKLATRIVECQGLPIVNGQCDPYATVTLAGPFRSEAKKTKVKRKTNNPQFDEVFYFEVTRPCSYSKKSHFDFEEEDVDKLEIRVDLWNASNLKFGDEFLGELRIPLKVLRQSSSYEAWYFLQPRDNGSKSLKPDDLGSLRLNVVYTEDHVFSSDYYSPLRDLLLKSADVEPVSASAAHILGEVCREKQEAAVPLVRLFLHYGRVVPFISAIASAEVKRTQDPNTIFRGNSLASKCIDETMKLAGMHYLHVTLKPAIEEICQSHKPCEIDPVKLKDGENLENNMENLRQYVDRVFHAITESGVSCPTVMCDIFFSLREAAAKRFQDDPDVRYTAVSSFIFLRFFAPAILSPNLFQLTPHHTDPQTSRTLTLISKTVQTLGSLSKSKSASFKESYMATFYEFFNEQKYADAVKNFLDLISSSGRRDPKSVEQPIVLKEGFMIKRAQGRKRFGMKNFKKRWFRLTNHEFTYHKSKGDQPLYSIPIENILAVEKLEEESFKMKNMFQVIQPERALYIQANNCVEAKDWIDILTKVSQCNQKRLTVYHPSAYLSGHWLCCRAPSDSAPGCSPCTGGLPANIQLDIDGDRETERIYSLFNLYMSKLEKMQEACGSKSVYDGPEQEEYSTFVIDDPQETYKTLKQVIAGVGALEQEHAQYKRDKFKKTKYGSQEHPIGDKSFQNYIRQQSETSTHSI
B2: PSPC1 (Paraspeckle Component 1) (protein, UniProt Q8WXF1 1-523)
chain: MMLRGNLKQVRIEKNPARLRALESAVGESEPAAAAAMALALAGEPAPPAPAPPEDHPDEEMGFTIDIKSFLKPGEKTYTQRCRLFVGNLPTDITEEDFKRLFERYGEPSEVFINRDRGFGFIRLESRTLAEIAKAELDGTILKSRPLRIRFATHGAALTVKNLSPVVSNELLEQAFSQFGPVEKAVVVVDDRGRATGKGFVEFAAKPPARKALERCGDGAFLLTTTPRPVIVEPMEQFDDEDGLPEKLMQKTQQYHKEREQPPRFAQPGTFEFEYASRWKALDEMEKQQREQVDRNIREAKEKLEAEMEAARHEHQLMLMRQDLMRRQEELRRLEELRNQELQKRKQIQLRHEEEHRRREEEMIRHREQEELRRQQEGFKPNYMENREQEMRMGDMGPRGAINMGDAFSPAPAGNQGPPPMMGMNMNNRATIPGPPMGPGPAMGPEGAANMGTPMMPDNGAVHNDRFPQGPPSQMGSPMGSRTGSETPQAPMSGVGPVSGGPGGFGRGSQGGNFEGPNKRRRY
B3: GOLGA5 (Golgin A5) (protein, UniProt Q8TBA6 1-731)
chain: MSWFVDLAGKAEDLLNRVDQGAATALSRKDNASNIYSKNTDYTELHQQNTDLIYQTGPKSTYISSAADNIRNQKATILAGTANVKVGSRTPVEASHPVENASVPRPSSHFVRRKKSEPDDELLFDFLNSSQKEPTGRVEIRKEKGKTPVFQSSQTSSVSSVNPSVTTIKTIEENSFGSQTHEAASNSDSSHEGQEESSKENVSSNAACPDHTPTPNDDGKSHELSNLRLENQLLRNEVQSLNQEMASLLQRSKETQEELNKARARVEKWNADHSKSDRMTRGLRAQVDDLTEAVAAKDSQLAVLKVRLQEADQLLSTRTEALEALQSEKSRIMQDQSEGNSLQNQALQTFQERLHEADATLKREQESYKQMQSEFAARLNKVEMERQNLAEAITLAERKYSDEKKRVDELQQQVKLYKLNLESSKQELIDYKQKATRILQSKEKLINSLKEGSGFEGLDSSTASSMELEELRHEKEMQREEIQKLMGQIHQLRSELQDMEAQQVNEAESAREQLQDLHDQIAGQKASKQELETELERLKQEFHYIEEDLYRTKNTLQSRIKDRDEEIQKLRNQLTNKTLSNSSQSELENRLHQLTETLIQKQTMLESLSTEKNSLVFQLERLEQQMNSASGSSSNGSSINMSGIDNGEGTRLRNVPVLFNDTETNLAGMYGKVRKAASSIDQFSIRLGIFLRRYPIARVFVIIYMALLHLWVMIVLLTYTPEMHHDQPYGK
B4: SORBS (Sorbin and SH3 domain-containing protein 2 or ArgBP2) (protein, UniProt O94875 1-1100)
chain: MSYYQRPFSPSAYSLPASLNSSIVMQHGTSLDSTDTYPQHAQSLDGTTSSSIPLYRSSEEEKRVTVIKAPHYPGIGPVDESGIPTAIRTTVDRPKDWYKTMFKQIHMVHKPDDDTDMYNTPYTYNAGLYNPPYSAQSHPAAKTQTYRPLSKSHSDNSPNAFKDASSPVPPPHVPPPVPPLRPRDRSSTEKHDWDPPDRKVDTRKFRSEPRSIFEYEPGKSSILQHERPASLYQSSIDRSLERPMSSASMASDFRKRRKSEPAVGPPRGLGDQSASRTSPGRVDLPGSSTTLTKSFTSSSPSSPSRAKGGDDSKICPSLCSYSGLNGNPSSELDYCSTYRQHLDVPRDSPRAISFKNGWQMARQNAEIWSSTEETVSPKIKSRSCDDLLNDDCDSFPDPKVKSESMGSLLCEEDSKESCPMAWGSPYVPEVRSNGRSRIRHRSARNAPGFLKMYKKMHRINRKDLMNSEVICSVKSRILQYESEQQHKDLLRAWSQCSTEEVPRDMVPTRISEFEKLIQKSKSMPNLGDDMLSPVTLEPPQNGLCPKRRFSIEYLLEEENQSGPPARGRRGCQSNALVPIHIEVTSDEQPRAHVEFSDSDQDGVVSDHSDYIHLEGSSFCSESDFDHFSFTSSESFYGSSHHHHHHHHHHHRHLISSCKGRCPASYTRFTTMLKHERARHENTEEPRRQEMDPGLSKLAFLVSPVPFRRKKNSAPKKQTEKAKCKASVFEALDSALKDICDQIKAEKKRGSLPDNSILHRLISELLPDVPERNSSLRALRRSPLHQPLHPLPPDGAIHCPPYQNDCGRMPRSASFQDVDTANSSCHHQDRGGALQDRESPRSYSSTLTDMGRSAPRERRGTPEKEKLPAKAVYDFKAQTSKELSFKKGDTVYILRKIDQNWYEGEHHGRVGIFPISYVEKLTPPEKAQPARPPPPAQPGEIGEAIAKYNFNADTNVELSLRKGDRVILLKRVDQNWYEGKIPGTNRQGIFPVSYVEVVKKNTKGAEDYPDPPIPHSYSSDRIHSLSSNKPQRPVFTHENIQGGGEPFQALYNYTPRNEDELELRESDVIDVMEKCDDGWFVGTSRRTKFFGTFPGNYVKRL
B5: GPRIN1 (protein, UniProt Q7Z2K8 1-1008)
chain: MDTAEDPAWLQLLQKDSSPPGPRPTAFFCPQDGSLGAGSSAMRDYCPSQQKASPAPPRHTPDQSPGMESRHRSPSGAGEGASCSDGPRGSLACPSPTCFSPQESPSKETLEAHGASISGTPEATTSGKPEPVSSVKTEPKSSDDRNPMFLEKMDFKSSKQADSTSIGKEDPGSSRKADPMFTGKAEPEILGKGDPVAPGRMDPMTVRKEDLGSLGKVDPLCSSKTYTVSPRKEDPGSLRKVDPVSSDKVDPVFPRKEEPRYSGKEHPVSSEKVAPTSAEKVDLVLSGKRDPGPSGKADPMPLESMDSASTGKTEPGLLGKLIPGSSGKNGPVSSGTGAPGSLGRLDPTCLGMADPASVGNVETVPATKEDSRFLGKMDPASSGEGRPVSGHTDTTASAKTDLTSLKNVDPMSSGKVDPVSLGKMDPMCSGKPELLSPGQAERVSVGKAGTVSPGKEDPVSSRREDPISAGSRKTSSEKVNPESSGKTNPVSSGPGDPRSLGTAGPPSAVKAEPATGGKGDPLSSEKAGLVASGKAAPTASGKAEPLAVGKEDPVSKGKADAGPSGQGDSVSIGKVVSTPGKTVPVPSGKVDPVSLGKAEAIPEGKVGSLPLEKGSPVTTTKADPRASGKAQPQSGGKAETKLPGQEGAAAPGEAGAVCLKKETPQASEKVDPGSCRKAEPLASGKGEPVSLGKADSAPSRKTESPSLGKVVPLSLEKTKPSSSSRQLDRKALGSARSPEGARGSEGRVEPKAEPVSSTEASSLGQKDLEAAGAERSPCPEAAAPPPGPRTRDNFTKAPSWEASAPPPPREDAGTQAGAQACVSVAVSPMSPQDGAGGSAFSFQAAPRAPSPPSRRDAGLQVSLGAAETRSVATGPMTPQAAAPPAFPEVRVRPGSALAAAVAPPEPAEPVRDVSWDEKGMTWEVYGAAMEVEVLGMAIQKHLERQIEEHGRQGAPAPPPAARAGPGRSGSVRTAPPDGAAKRPPGLFRALLQSVRRPRCCSRAGPTAE
B6: p54 (Nuclear RNA-Binding Protein, 54-KD or NONO) (protein, UniProt Q15233 1-471)
chain: MQSNKTFNLEKQNHTPRKHHQHHHQQQHHQQQQQQPPPPPIPANGQQASSQNEGLTIDLKNFRKPGEKTFTQRSRLFVGNLPPDITEEEMRKLFEKYGKAGEVFIHKDKGFGFIRLETRTLAEIAKVELDNMPLRGKQLRVRFACHSASLTVRNLPQYVSNELLEEAFSVFGQVERAVVIVDDRGRPSGKGIVEFSGKPAARKALDRCSEGSFLLTTFPRPVTVEPMDQLDDEEGLPEKLVIKNQQFHKEREQPPRFAQPGSFEYEYAMRWKALIEMEKQQQDQVDRNIKEAREKLEMEMEAARHEHQVMLMRQDLMRRQEELRRMEELHNQEVQKRKQLELRQEEERRRREEEMRRQQEEMMRRQQEGFKGTFPDAREQEIRMGQMAMGGAMGINNRGAMPPAPVPAGTPAPPGPATMMPDGTLGLTPPTTERFGQAATMEGIGAIGGTPPAFNRAAPGAEFAPNKRRRY

Protein sequences, listed by entry. Tags and fused reporters are not part of them. Lines headed by an entry give the natural chain unless they say otherwise; changes in a name come on top.
UniProt P63096: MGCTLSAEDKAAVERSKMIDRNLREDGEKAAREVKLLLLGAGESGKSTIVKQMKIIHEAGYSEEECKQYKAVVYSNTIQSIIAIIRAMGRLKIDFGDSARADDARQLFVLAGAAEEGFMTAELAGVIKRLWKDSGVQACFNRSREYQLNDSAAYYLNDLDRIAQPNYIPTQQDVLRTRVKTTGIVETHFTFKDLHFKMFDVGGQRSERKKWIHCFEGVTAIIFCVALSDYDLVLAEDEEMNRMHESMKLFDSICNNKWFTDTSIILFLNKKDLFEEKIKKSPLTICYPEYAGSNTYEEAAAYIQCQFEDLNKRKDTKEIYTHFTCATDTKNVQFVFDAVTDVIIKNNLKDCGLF
UniProt P18850: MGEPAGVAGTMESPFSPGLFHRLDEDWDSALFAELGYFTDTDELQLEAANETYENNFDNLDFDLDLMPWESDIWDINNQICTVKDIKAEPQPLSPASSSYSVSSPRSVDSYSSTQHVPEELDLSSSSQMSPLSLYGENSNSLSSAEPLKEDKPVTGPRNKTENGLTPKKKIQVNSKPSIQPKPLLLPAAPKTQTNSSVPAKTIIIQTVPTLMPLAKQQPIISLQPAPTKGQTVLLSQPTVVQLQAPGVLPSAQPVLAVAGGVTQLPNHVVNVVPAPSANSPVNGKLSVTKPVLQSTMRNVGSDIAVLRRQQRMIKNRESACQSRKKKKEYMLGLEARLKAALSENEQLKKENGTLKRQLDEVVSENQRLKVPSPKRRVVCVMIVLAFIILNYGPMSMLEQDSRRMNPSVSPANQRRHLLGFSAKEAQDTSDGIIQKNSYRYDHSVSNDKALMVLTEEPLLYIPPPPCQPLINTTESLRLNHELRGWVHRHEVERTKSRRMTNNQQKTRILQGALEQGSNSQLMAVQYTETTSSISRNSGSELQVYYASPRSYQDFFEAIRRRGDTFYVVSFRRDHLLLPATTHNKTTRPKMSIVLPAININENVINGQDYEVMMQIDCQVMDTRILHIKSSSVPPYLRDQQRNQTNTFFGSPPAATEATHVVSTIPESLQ
UniProt Q14247: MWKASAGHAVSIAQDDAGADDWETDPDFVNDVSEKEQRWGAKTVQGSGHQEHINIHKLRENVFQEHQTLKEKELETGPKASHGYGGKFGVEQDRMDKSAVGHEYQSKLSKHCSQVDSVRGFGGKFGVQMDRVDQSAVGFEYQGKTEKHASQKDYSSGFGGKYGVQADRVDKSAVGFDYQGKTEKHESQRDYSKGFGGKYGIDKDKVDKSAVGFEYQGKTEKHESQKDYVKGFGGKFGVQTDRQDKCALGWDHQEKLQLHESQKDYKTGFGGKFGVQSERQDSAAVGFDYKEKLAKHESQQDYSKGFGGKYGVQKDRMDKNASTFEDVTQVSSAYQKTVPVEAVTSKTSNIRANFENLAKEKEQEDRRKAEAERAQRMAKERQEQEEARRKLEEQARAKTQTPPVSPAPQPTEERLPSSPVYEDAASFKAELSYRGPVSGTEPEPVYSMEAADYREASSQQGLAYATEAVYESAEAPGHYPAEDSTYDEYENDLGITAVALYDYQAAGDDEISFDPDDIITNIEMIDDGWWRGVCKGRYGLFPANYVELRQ
UniProt O15085: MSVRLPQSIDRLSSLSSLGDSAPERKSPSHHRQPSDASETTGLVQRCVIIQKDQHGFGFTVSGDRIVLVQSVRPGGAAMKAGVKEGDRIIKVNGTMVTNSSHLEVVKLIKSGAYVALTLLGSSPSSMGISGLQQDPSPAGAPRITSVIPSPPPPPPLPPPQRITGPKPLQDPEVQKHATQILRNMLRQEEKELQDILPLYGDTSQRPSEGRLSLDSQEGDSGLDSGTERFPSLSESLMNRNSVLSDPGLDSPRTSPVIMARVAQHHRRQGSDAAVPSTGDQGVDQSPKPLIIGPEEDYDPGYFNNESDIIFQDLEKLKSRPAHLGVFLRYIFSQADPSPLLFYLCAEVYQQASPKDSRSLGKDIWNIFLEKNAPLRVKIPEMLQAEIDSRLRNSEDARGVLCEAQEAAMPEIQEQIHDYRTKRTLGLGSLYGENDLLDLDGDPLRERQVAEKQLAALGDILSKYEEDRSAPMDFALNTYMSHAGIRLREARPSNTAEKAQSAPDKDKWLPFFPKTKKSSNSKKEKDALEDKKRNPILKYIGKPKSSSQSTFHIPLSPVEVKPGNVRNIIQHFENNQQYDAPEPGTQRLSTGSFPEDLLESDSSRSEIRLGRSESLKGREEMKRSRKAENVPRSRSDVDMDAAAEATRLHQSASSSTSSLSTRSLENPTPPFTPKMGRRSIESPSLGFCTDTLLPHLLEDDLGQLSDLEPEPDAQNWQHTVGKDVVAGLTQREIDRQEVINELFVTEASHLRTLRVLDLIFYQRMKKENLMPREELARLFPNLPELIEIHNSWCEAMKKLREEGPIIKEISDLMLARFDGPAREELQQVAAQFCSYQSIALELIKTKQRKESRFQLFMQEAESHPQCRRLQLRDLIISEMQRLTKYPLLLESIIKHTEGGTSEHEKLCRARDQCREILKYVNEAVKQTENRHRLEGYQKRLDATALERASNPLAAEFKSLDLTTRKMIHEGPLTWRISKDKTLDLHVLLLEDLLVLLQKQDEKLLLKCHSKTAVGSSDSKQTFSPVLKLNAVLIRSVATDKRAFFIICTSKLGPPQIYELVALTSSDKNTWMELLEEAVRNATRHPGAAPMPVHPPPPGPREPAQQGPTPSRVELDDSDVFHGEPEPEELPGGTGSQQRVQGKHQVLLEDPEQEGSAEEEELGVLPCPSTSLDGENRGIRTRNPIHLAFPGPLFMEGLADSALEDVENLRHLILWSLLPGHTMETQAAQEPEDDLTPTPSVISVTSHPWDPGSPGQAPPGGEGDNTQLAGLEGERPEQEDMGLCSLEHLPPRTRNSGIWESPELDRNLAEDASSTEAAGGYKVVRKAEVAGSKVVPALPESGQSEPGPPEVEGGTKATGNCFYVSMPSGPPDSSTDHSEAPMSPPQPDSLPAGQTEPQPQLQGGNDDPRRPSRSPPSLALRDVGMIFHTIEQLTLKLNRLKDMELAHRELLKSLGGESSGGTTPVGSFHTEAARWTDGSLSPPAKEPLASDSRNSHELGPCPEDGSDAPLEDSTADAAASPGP
UniProt Q9NPQ8: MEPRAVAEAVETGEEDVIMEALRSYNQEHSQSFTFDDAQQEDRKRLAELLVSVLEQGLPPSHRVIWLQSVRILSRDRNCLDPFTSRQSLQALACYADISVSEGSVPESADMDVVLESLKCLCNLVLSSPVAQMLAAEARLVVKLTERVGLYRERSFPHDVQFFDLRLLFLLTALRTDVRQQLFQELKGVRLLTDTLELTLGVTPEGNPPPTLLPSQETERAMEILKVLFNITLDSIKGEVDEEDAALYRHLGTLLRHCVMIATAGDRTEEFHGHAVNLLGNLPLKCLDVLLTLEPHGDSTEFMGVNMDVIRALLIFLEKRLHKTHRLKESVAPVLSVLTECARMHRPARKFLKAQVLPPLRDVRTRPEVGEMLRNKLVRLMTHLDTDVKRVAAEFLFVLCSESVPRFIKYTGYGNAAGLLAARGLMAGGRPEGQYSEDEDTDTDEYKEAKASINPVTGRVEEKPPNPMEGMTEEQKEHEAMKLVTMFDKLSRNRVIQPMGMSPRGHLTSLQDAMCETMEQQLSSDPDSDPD
UniProt P08670: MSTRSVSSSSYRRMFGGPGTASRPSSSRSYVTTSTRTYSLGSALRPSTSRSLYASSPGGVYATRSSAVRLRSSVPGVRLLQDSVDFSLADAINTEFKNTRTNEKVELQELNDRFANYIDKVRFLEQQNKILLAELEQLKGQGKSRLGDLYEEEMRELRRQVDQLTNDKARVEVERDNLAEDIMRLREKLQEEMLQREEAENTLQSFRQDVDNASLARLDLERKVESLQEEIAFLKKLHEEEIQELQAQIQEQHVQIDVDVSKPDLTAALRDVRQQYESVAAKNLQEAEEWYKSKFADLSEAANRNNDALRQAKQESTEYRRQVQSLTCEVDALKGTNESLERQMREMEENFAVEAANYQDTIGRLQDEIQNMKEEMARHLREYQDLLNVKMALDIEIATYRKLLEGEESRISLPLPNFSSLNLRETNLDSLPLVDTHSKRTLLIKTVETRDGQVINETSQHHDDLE

What follows are molecules tested against BioID2-Gαi1-Q204L (human) (UniProt P63096) (assay: proximity labelling).

binding, binds:
B1, B2, B3, B4, B5, B6

Biological target: BioID2-Gαi1-Q204L (human) (UniProt P63096)
Experiment: proximity labelling
Remark: another data set of the same source

binding, binds:
ATF6 (Activating Transcription Factor 6) (from UniProt P18850 1-670), Cortactin-GFP (from UniProt Q14247 1-550), PDZ-RhoGEF (from UniProt O15085 1-1522), Ric8A (from UniProt Q9NPQ8 1-531), Vimentin (from UniProt P08670 1-466), Vimentin-GFP (from UniProt P08670 1-466), c-myc tagged full-length PRG (from UniProt O15085 1-1522)
